Consider two substances from PMC11946513, “Modulation of the substrate preference of a MYST acetyltransferase by a scaffold protein” (The Journal of Biological Chemistry, 2025).

Chains of the proteins cited; added tags and fusions are not shown. Lines headed by an entry give the natural chain unless they say otherwise; changes in a name come on top. A line that says so, or that is headed by a name, gives the form on record, which may keep a tag or linker. Residues count along the entry.
UniProt Q92794: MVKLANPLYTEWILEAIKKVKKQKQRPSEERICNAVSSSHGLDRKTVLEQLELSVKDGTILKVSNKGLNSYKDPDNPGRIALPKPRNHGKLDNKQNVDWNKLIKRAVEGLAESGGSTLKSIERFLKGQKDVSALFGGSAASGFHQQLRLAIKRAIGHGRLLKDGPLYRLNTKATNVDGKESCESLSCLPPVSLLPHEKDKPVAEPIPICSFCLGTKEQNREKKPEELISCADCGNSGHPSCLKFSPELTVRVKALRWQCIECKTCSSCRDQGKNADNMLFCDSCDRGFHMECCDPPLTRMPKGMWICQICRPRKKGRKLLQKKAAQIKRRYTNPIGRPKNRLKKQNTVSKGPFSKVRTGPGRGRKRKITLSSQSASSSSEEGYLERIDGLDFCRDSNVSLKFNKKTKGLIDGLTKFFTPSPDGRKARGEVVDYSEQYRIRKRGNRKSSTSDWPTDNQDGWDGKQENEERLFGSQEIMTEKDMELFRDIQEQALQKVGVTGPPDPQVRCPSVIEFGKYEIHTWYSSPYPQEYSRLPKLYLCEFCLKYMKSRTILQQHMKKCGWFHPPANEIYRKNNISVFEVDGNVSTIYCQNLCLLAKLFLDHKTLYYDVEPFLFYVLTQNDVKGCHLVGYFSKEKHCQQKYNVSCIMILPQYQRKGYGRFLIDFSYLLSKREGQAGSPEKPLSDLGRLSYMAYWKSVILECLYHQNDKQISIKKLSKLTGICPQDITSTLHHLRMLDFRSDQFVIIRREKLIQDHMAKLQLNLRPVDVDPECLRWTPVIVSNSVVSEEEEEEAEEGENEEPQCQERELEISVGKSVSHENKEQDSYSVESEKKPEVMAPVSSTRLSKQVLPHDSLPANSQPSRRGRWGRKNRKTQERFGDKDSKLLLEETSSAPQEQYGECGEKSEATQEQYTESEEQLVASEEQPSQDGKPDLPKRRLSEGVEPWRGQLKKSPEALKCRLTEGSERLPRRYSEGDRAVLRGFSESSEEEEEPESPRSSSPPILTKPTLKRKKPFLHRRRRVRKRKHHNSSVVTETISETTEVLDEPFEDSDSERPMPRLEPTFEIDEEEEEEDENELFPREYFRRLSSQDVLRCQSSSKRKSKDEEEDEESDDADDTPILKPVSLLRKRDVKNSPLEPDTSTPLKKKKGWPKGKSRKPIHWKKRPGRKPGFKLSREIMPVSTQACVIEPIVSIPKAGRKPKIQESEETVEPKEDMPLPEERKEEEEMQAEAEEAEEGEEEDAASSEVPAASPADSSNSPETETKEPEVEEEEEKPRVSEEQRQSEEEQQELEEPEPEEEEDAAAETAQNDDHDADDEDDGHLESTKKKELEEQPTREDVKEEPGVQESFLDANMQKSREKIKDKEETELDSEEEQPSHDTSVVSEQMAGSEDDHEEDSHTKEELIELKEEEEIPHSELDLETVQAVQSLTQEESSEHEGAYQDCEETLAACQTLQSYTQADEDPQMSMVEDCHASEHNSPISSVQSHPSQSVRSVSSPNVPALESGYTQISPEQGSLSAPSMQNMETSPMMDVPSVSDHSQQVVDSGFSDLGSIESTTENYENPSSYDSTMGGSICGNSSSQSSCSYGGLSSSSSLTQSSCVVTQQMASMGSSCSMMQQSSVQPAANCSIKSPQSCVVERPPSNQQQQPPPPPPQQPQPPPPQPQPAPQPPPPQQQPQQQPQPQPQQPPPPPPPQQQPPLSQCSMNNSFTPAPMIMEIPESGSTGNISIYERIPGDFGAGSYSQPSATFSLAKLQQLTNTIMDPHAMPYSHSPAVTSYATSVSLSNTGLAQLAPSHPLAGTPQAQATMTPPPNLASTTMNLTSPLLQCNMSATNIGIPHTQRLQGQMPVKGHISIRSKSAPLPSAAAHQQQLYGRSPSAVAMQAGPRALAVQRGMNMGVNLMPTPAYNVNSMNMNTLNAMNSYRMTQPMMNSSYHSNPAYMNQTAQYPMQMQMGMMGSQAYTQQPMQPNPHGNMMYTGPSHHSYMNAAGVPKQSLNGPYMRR
Flag-MYST (KAT6A MYST domain with Flag tag): residues 501-784 of Q92794

Results are given in words; binding and its absence hold for the method and conditions named. Some results given as binding are weak or reduced against the parent protein; the word gives no strength.

For experiment [1], the target named is Flag-MYST (KAT6A MYST domain with Flag tag) (human) (UniProt Q92794). Kind of experiment: co-purification (anti-Flag resin, then gel filtration); proteins co-expressed in Sf21 cells by co-infection with baculoviruses; Flag on KAT6A^FL or MYST; 4 °C; lysis in 50 mM Tris pH 8.0, 250 mM NaCl, 0.25 mM TCEP; gel filtration in 25 mM HEPES pH 7.5, 250 mM NaCl, 0.25 mM TCEP.

In experiment [2] the target is full-length KAT6A (KAT6A^FL) (human) (UniProt Q92794). Described as above.

In the case of “BRPF1 (bromodomain and PHD finger-containing protein 1) (from UniProt P55201-1 1-1214)”, the binding result in experiment [1] and in experiment [2] was “binds” each time. As for “ING5 (inhibitor of growth 5) (from UniProt Q8WYH8-1 1-240)”, the binding result in experiment [2] was “binds”.
